{"source": "the supplement of paper PMC5393889", "note": "This is one part of the list.", "data": [{"system": "Caenorhabditis elegans N2", "test": "aldicarb interaction hit call (worm growth perturbed in combination with 10 uM aldicarb in both replicates, no effect as single agent) (binary (1 = interacts)); higher = interacts with aldicarb (growth perturbed)", "settings": "first compound 1.5 µM; aldicarb concentration 10 µM; 6 days; 20 °C", "values": [{"smiles": "O=C(Nc1ccc(-c2cn3ccccc3n2)cc1)c1ccccc1F", "note": "[wact-629] + CNC(=O)O/N=C/C(C)(C)SC [aldicarb]", "aldicarb interaction hit call": "inactive: 0"}, {"smiles": "COc1ccc(C(=O)Nc2ccc(F)cc2F)cc1", "note": "[wact-591] + CNC(=O)O/N=C/C(C)(C)SC [aldicarb]", "aldicarb interaction hit call": "inactive: 0"}, {"smiles": "CCCN1CCC(C(=O)Nc2ccc(-c3cccc(C)c3)cc2)CC1", "note": "[wact-267] + CNC(=O)O/N=C/C(C)(C)SC [aldicarb]", "aldicarb interaction hit call": "inactive: 0"}, {"smiles": "C#CCOc1ccc(-c2nc(-c3cccnc3)no2)cc1", "note": "[wact-355] + CNC(=O)O/N=C/C(C)(C)SC [aldicarb]", "aldicarb interaction hit call": "inactive: 0"}, {"smiles": "c1ccc(CNc2ccc(-c3nc4ncccc4o3)cc2)nc1", "note": "[wact-205] + CNC(=O)O/N=C/C(C)(C)SC [aldicarb]", "aldicarb interaction hit call": "inactive: 0"}, {"smiles": "CCOc1ccc(C(=O)Nc2ccc(Cc3ccncc3)cc2)cc1", "note": "[wact-366] + CNC(=O)O/N=C/C(C)(C)SC [aldicarb]", "aldicarb interaction hit call": "inactive: 0"}, {"smiles": "C#CCSc1nc2ccccc2n1C(=O)c1sc2ccccc2c1Cl", "note": "[wact-206] + CNC(=O)O/N=C/C(C)(C)SC [aldicarb]", "aldicarb interaction hit call": "inactive: 0"}, {"smiles": "O=C(c1ccc(Cl)cc1)C1CCCN(Cc2ccccc2)C1", "note": "(configuration not stated) [wact-328] + CNC(=O)O/N=C/C(C)(C)SC [aldicarb]", "aldicarb interaction hit call": "inactive: 0"}, {"smiles": "CCC(=O)N1CCN(c2ccc(NC(=O)c3cc4ccccc4o3)cc2Cl)CC1", "note": "[wact-134] + CNC(=O)O/N=C/C(C)(C)SC [aldicarb]", "aldicarb interaction hit call": "active: 1"}, {"smiles": "Cc1oc(-c2ccc(F)cc2)nc1CN(C)C(C)c1cccs1", "note": "(configuration not stated) [wact-293] + CNC(=O)O/N=C/C(C)(C)SC [aldicarb]", "aldicarb interaction hit call": "inactive: 0"}, {"smiles": "COc1ccc2cc([N+](=O)[O-])cnc2c1", "note": "[wact-587] + CNC(=O)O/N=C/C(C)(C)SC [aldicarb]", "aldicarb interaction hit call": "inactive: 0"}, {"smiles": "Brc1ccc(-c2nnc(-c3ccccc3)o2)cc1", "note": "[wact-425] + CNC(=O)O/N=C/C(C)(C)SC [aldicarb]", "aldicarb interaction hit call": "active: 1"}, {"smiles": "C=CCSc1nc2ccccc2c(=O)n1-c1ccccc1OC", "note": "[wact-60] + CNC(=O)O/N=C/C(C)(C)SC [aldicarb]", "aldicarb interaction hit call": "inactive: 0"}, {"smiles": "O=C(Nc1ccc(OC(F)F)cc1)c1ccc(F)cc1Cl", "note": "[wact-580] + CNC(=O)O/N=C/C(C)(C)SC [aldicarb]", "aldicarb interaction hit call": "inactive: 0"}, {"smiles": "Cc1cc(I)ccc1OCCN1CCOCC1.Cl", "note": "[wact-559] + CNC(=O)O/N=C/C(C)(C)SC [aldicarb]", "aldicarb interaction hit call": "inactive: 0"}, {"smiles": "O=C(c1cc(COc2ccc3ncccc3c2)on1)N1CCC(c2ccncc2)CC1", "note": "[wact-262] + CNC(=O)O/N=C/C(C)(C)SC [aldicarb]", "aldicarb interaction hit call": "inactive: 0"}, {"smiles": "c1ccc2nc(-c3nc4ccccc4o3)ccc2c1", "note": "[wact-40] + CNC(=O)O/N=C/C(C)(C)SC [aldicarb]", "aldicarb interaction hit call": "inactive: 0"}, {"smiles": "CCCN1CCN(C(=O)Nc2cc(Cl)cc(Cl)c2)CC1", "note": "[wact-200] + CNC(=O)O/N=C/C(C)(C)SC [aldicarb]", "aldicarb interaction hit call": "inactive: 0"}, {"smiles": "Cl.Fc1ccccc1-c1ccc(CNCc2cccs2)o1", "note": "[wact-188] + CNC(=O)O/N=C/C(C)(C)SC [aldicarb]", "aldicarb interaction hit call": "inactive: 0"}, {"smiles": "Cc1ccc(-c2csc(NC(=O)c3ccco3)n2)cc1", "note": "[wact-620] + CNC(=O)O/N=C/C(C)(C)SC [aldicarb]", "aldicarb interaction hit call": "inactive: 0"}, {"smiles": "Fc1ccccc1NC(=S)Nc1ccc(Cl)c(Cl)c1", "note": "[wact-528] + CNC(=O)O/N=C/C(C)(C)SC [aldicarb]", "aldicarb interaction hit call": "inactive: 0"}, {"smiles": "C=CCOc1ccc(/C=C/C(=O)c2ccc(OC)cc2)cc1", "note": "[wact-218] + CNC(=O)O/N=C/C(C)(C)SC [aldicarb]", "aldicarb interaction hit call": "inactive: 0"}, {"smiles": "O=C(Nc1ccc(Oc2ccc(Cl)cc2)cc1)c1ccc([N+](=O)[O-])o1", "note": "[wact-461] + CNC(=O)O/N=C/C(C)(C)SC [aldicarb]", "aldicarb interaction hit call": "inactive: 0"}, {"smiles": "COc1cc(CNCCO)cc(Cl)c1OCc1ccc(Cl)cc1Cl.Cl", "note": "[wact-98] + CNC(=O)O/N=C/C(C)(C)SC [aldicarb]", "aldicarb interaction hit call": "inactive: 0"}, {"smiles": "O=[N+]([O-])c1ccc(N2CCN(CC3CCCCC3)CC2)cc1", "note": "[wact-45] + CNC(=O)O/N=C/C(C)(C)SC [aldicarb]", "aldicarb interaction hit call": "inactive: 0"}, {"smiles": "O=C(Nc1ccc(F)cc1F)N1CCN(c2ccc([N+](=O)[O-])cc2)CC1", "note": "[wact-544] + CNC(=O)O/N=C/C(C)(C)SC [aldicarb]", "aldicarb interaction hit call": "inactive: 0"}, {"smiles": "CNCc1ccc(OCc2ccc(Cl)cc2)cc1.Cl", "note": "[wact-164] + CNC(=O)O/N=C/C(C)(C)SC [aldicarb]", "aldicarb interaction hit call": "inactive: 0"}, {"smiles": "CCc1ccc(C(=O)Nc2ccccc2Cl)cc1", "note": "[wact-560] + CNC(=O)O/N=C/C(C)(C)SC [aldicarb]", "aldicarb interaction hit call": "inactive: 0"}, {"smiles": "COc1ccc(/C=C/c2ccccn2)cc1", "note": "[wact-622] + CNC(=O)O/N=C/C(C)(C)SC [aldicarb]", "aldicarb interaction hit call": "inactive: 0"}, {"smiles": "C#CCSc1nnc(-c2ccccc2)o1", "note": "[wact-345] + CNC(=O)O/N=C/C(C)(C)SC [aldicarb]", "aldicarb interaction hit call": "inactive: 0"}, {"smiles": "CCCCOC(=O)Nc1ccc([N+](=O)[O-])cc1", "note": "[wact-419] + CNC(=O)O/N=C/C(C)(C)SC [aldicarb]", "aldicarb interaction hit call": "inactive: 0"}, {"smiles": "Fc1cccc(F)c1-c1nc(-c2ccccc2)no1", "note": "[wact-177] + CNC(=O)O/N=C/C(C)(C)SC [aldicarb]", "aldicarb interaction hit call": "inactive: 0"}, {"smiles": "O=C(Oc1ccc(Br)cc1)c1cccs1", "note": "[wact-401] + CNC(=O)O/N=C/C(C)(C)SC [aldicarb]", "aldicarb interaction hit call": "inactive: 0"}, {"smiles": "Cc1ccccc1-c1noc(-c2cccs2)n1", "note": "[wact-59] + CNC(=O)O/N=C/C(C)(C)SC [aldicarb]", "aldicarb interaction hit call": "inactive: 0"}, {"smiles": "O=C(c1ccc(Cl)c(Cl)c1)N1CCN(c2ccc([N+](=O)[O-])cc2F)CC1", "note": "[wact-221] + CNC(=O)O/N=C/C(C)(C)SC [aldicarb]", "aldicarb interaction hit call": "inactive: 0"}, {"smiles": "Cc1cc(Cl)cc(Br)c1OCCCN1CCN(C)CC1.Cl", "note": "[wact-143] + CNC(=O)O/N=C/C(C)(C)SC [aldicarb]", "aldicarb interaction hit call": "inactive: 0"}, {"smiles": "CSc1ncnc2sc(-c3ccccc3)cc12", "note": "[wact-603] + CNC(=O)O/N=C/C(C)(C)SC [aldicarb]", "aldicarb interaction hit call": "inactive: 0"}]}]}
